Results are given in words; binding and its absence hold for the method and conditions named. Some results given as binding are weak or reduced against the parent protein; the word gives no strength.
biological target: Factor VIIIa (recombinant FVIII, Kogenate FS, activated with alpha-thrombin) (UniProt P00451); test: functional cofactor binding (KD-app): FX activation by FIXa at varied FVIIIa, PC/PS vesicles, fluorogenic FXa read-out

Chains of the proteins cited; added tags and fusions are not shown. Lines headed by an entry give the natural chain unless they say otherwise; changes in a name come on top. A line that says so, or that is headed by a name, gives the form on record, which may keep a tag or linker.
Factor VIIIa (recombinant FVIII, Kogenate FS, activated with alpha-thrombin) (P00451, form named): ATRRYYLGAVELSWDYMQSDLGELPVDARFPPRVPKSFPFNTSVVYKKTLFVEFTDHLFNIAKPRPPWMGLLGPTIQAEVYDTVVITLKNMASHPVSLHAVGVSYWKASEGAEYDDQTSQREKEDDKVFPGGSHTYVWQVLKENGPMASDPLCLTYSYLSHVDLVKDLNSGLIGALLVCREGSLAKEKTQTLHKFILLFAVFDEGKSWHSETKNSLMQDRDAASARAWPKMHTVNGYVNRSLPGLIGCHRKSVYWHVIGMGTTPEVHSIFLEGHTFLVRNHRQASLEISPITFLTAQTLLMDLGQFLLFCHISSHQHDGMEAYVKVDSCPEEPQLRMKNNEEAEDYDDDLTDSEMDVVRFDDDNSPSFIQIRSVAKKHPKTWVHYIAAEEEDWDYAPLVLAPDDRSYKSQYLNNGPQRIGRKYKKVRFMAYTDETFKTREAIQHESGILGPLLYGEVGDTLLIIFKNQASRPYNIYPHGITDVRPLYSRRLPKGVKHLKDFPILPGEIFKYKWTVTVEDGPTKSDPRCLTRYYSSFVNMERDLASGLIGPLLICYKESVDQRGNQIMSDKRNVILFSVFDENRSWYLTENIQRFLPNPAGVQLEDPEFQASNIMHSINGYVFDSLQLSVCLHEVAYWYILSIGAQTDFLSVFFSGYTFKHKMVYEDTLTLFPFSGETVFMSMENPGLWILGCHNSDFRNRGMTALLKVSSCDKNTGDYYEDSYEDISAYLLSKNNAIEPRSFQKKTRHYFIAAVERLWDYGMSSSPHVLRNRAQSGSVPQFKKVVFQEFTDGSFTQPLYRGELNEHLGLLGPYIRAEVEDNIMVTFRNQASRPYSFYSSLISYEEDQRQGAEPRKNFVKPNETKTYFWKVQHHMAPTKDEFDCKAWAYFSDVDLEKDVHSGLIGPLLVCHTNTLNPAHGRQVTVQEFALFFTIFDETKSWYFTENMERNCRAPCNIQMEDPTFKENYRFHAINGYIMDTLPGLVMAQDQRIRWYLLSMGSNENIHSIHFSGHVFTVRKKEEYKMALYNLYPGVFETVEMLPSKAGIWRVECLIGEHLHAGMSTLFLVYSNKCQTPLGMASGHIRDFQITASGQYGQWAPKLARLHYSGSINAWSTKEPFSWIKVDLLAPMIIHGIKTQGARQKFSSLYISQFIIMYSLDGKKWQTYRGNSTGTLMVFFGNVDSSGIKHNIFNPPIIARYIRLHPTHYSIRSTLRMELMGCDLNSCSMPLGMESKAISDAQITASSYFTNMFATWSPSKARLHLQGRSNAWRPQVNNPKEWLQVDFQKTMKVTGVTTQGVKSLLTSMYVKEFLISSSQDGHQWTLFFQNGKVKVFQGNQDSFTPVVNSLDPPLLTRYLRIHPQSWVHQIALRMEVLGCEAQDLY
UniProt P00740: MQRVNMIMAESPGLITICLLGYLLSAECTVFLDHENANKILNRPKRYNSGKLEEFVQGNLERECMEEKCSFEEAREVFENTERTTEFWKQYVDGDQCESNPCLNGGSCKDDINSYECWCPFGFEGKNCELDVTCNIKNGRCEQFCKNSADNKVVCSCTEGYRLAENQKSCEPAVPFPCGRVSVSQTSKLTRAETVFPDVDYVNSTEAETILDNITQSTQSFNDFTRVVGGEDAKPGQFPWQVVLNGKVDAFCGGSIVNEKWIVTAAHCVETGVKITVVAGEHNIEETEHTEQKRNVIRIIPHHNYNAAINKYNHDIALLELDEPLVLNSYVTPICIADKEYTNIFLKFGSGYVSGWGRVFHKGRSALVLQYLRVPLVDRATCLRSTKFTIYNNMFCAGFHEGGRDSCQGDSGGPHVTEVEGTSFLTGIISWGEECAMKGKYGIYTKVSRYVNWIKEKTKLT

binding, binds:
FIXa-E410N (from UniProt P00740 47-191; P00740 227-461) (enzyme)
FIXa-K228N/K247N/N249S/R318Y/R338E/T343R/E410N (from UniProt P00740 47-191; P00740 227-461) (enzyme)
FIXa-R318Y/R338E (from UniProt P00740 47-191; P00740 227-461) (enzyme)
FIXa-R318Y/R338E/E410N (from UniProt P00740 47-191; P00740 227-461) (enzyme)
FIXa-R318Y/R338E/R403E/E410N (from UniProt P00740 47-191; P00740 227-461) (enzyme)
FIXa-R318Y/R338E/T343R/E410N (from UniProt P00740 47-191; P00740 227-461) (enzyme)
FIXa-R338E (from UniProt P00740 47-191; P00740 227-461) (enzyme)
FIXa-R338E/E410N (from UniProt P00740 47-191; P00740 227-461) (enzyme)
FIXa-R338E/T343R (from UniProt P00740 47-191; P00740 227-461) (enzyme)
FIXa-T343R (from UniProt P00740 47-191; P00740 227-461) (enzyme)
FIXa-Y155F/K247N/N249S/R318Y/R338E/T343R/R403E/E410N (from UniProt P00740 47-191; P00740 227-461) (enzyme)
